# PubChem BioAssay AID2685 (National Center for Advancing Translational Sciences (NCATS), 2010)
# This is one part of the list. These are further read-outs of the screen, such as a control signal, another cell line or another target. No call is given for them. The list favours compounds with an active or inconclusive main result. The note in brackets gives the kind of curve behind each potency; many fits are weak.
# Experiment: qHTS Assay for Lipid Storage Modulators in Drosophila S3 Cells;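 for cell number change: cells counted by Cell Tracker Red CMTPX staining in the red channel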
# Conditions: BODIPY lipid droplet fluorescence, 18-24 h; for cell number change: measured here: cell count max response, cells fed with added oleic acid
# Procedure, shortened: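 Drosophila S3 cells loaded with oleic acid (400 uM, as added) and compounds at several concentrations; lipid droplets imaged by 488-nm laser-scanning cytometry, 500–530 nm intensity and object ratio to cell channel. Percent activity normalized to 20 uM Triacsin C.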
# [1] = measured here: lipid fluorescence (Fed channel) AC50, cells fed with added oleic acid
# [2] = measured here: cell number channel AC50, cells fed with added oleic acid
smiles,measurement,setting,value
N#Cc1ccccc1S(=O)(=O)N1CCN(C(=O)Cc2coc3cc(O)ccc23)CC1,cell number change,,23%
same,AC50,[1],"6.51 µM [rising, partial curve, poor fit]"
CCOC(=O)C1CCN(S(=O)(=O)c2ccc(C(=O)OC)cc2)CC1,cell number change,,-31.3%
same,AC50,[2],"20.6 µM [falling, single point]"
same,AC50,[1],"18.4 µM [falling, partial curve]"
COc1ccc(Nc2cc(C(=O)NCc3ccco3)c3ccccc3n2)cc1,cell number change,,18.8%
same,AC50,[1],"0.103 µM [rising, partial curve, poor fit]"
COc1cc(C(=O)OCCc2c(C)nc3nc[nH]n3c2=O)cc(OC)c1OC,cell number change,,-30.9%
same,AC50,[2],"23.1 µM [falling, single point]"
CCCn1c(=O)c(-c2ccccc2)c(O)c2ccccc21,cell number change,,17.1%
same,AC50,[1],"6.51 µM [falling, single point]"
CN(C)S(=O)(=O)c1cccc(NC(=O)c2cccc(NS(=O)(=O)c3ccccc3)c2)c1,cell number change,,-50.8%
same,AC50,[2],"11.6 µM [falling, partial curve, poor fit]"
same,AC50,[1],"29.1 µM [falling, single point]"
COCCOC(=O)N/C=C\c1nc2ccccc2c(=O)[nH]1,cell number change,,28.9%
same,AC50,[1],"0.13 µM [rising, full curve, poor fit]"
COC(=O)c1ccc(NC(=O)CCn2cccc2)cc1,cell number change,,-29.9%
same,AC50,[1],"32.6 µM [falling, single point]"
COn1c(SCc2ccc(Cl)cc2)nc2ccccc2c1=O,cell number change,,120%
same,AC50,[2],"29.1 µM [rising, single point]"
O=C(CCNC(=O)c1ccccc1Cl)Nc1ccc(S(=O)(=O)Nc2ncccn2)cc1,cell number change,,-32.3%
same,AC50,[1],"3.26 µM [falling, full curve]"
Fc1ccc(C(c2nnnn2Cc2ccccc2)N2CCSCC2)cc1 (centres undefined),cell number change,,3.79%
same,AC50,[1],"3.66 µM [rising, partial curve]"
Cc1ccc(C(=O)NCCSC(C)(C)C)cc1[N+](=O)[O-],cell number change,,-25.4%
same,AC50,[1],"1.84 µM [rising, partial curve, poor fit]"
C=CCN(CC=C)S(=O)(=O)c1ccc(NC(=S)NC(=O)/C=C/c2cccc3ccccc23)cc1,cell number change,,-5.38%
COc1ccc(CN(Cc2cccn2C)S(=O)(=O)c2ccccc2)cc1,AC50,[1],"6.51 µM [rising, single point]"
Cc1cc(Oc2ccc(C)c(Cl)c2)nc(SCC(=O)c2ccccc2)n1,cell number change,,41.4%
same,AC50,[2],"29.1 µM [rising, single point]"
same,AC50,[1],"29.1 µM [rising, single point]"
CC1c2ccccc2SC(CCCN(C)C)c2ccccc21 (centres undefined),cell number change,,2.54%
same,AC50,[1],"0.164 µM [falling, full curve, poor fit]"
COc1ccc(C(=O)NNC2=C(C(=O)C(F)(F)F)CCC2)cc1,cell number change,,13.1%
same,AC50,[1],"10.3 µM [rising, partial curve, poor fit]"
Cc1ccc(C(=O)NCc2ccc3c(c2)OCO3)cc1N1CCCC1=O,cell number change,,-13%
same,AC50,[1],"0.00461 µM [rising, full curve, poor fit]"
COc1cc2c(cc1NC(=O)C(C)Sc1nc3ccccc3n1C)oc1ccccc12 (centres undefined),cell number change,,27.9%
same,AC50,[1],"29.1 µM [rising, partial curve]"
COc1ccc(OC)c(N(CC(=O)NN=C2CCN(C)CC2)S(=O)(=O)c2ccccc2)c1,cell number change,,-47.4%
same,AC50,[2],"32.6 µM [falling, single point]"
Cc1ccc(S(=O)(=O)N(C)c2ccccc2C(=O)Nc2c(F)cccc2F)cc1,cell number change,,-36.5%
same,AC50,[2],"20.6 µM [falling, single point]"
same,AC50,[1],"29.1 µM [falling, single point]"
CC(=O)OC(C(=O)NCc1ccco1)c1cccnc1 (centres undefined),cell number change,,-75.1%
same,AC50,[2],"25.9 µM [falling, partial curve, poor fit]"
same,AC50,[1],"0.517 µM [falling, partial curve, poor fit]"
O=C(CSCc1ccc(Cl)cc1)NN=C1CCCC1,cell number change,,17.6%
same,AC50,[1],"20.6 µM [rising, single point]"
COc1ccc(C(=O)OC2CCN(c3ncc(C(F)(F)F)cc3Cl)CC2)cc1,cell number change,,-44.4%
same,AC50,[2],"4.61 µM [falling, single point]"
same,AC50,[1],"6.51 µM [falling, single point]"
COC(C[C@@H](O)[C@@H](C)[C@H](O)COCc1ccccc1)OC,cell number change,,26.4%
O=C(c1ccc2oc(CCCc3ccccc3)nc2c1)N1CCCC(CCCO)C1 (centres undefined),AC50,[1],"20.6 µM [falling, single point]"
CCCNC(=O)CCC(=O)Nc1ncc(-c2ccc(C)cc2)n1C,AC50,[2],"4.61 µM [rising, single point]"
CC1CCN(C(=O)c2cc3ccccc3o2)CC1,cell number change,,143%
same,AC50,[2],"18.4 µM [rising, single point]"
same,AC50,[1],"6.51 µM [rising, single point]"
COc1ccc(S(=O)(=O)N2Cc3ccccc3CC2C(=O)N2CCOCC2)cc1OC (centres undefined),cell number change,,-4.52%
O=C(Nc1ccc2c(c1)OCO2)C(c1ccccc1)N1CCN(C(=O)c2ccco2)CC1 (centres undefined),cell number change,,76.6%
same,AC50,[2],"4.11 µM [rising, partial curve, poor fit]"
COCCn1c(N)c(Sc2ccccc2)c(=O)[nH]c1=O,cell number change,,7.14%
COc1ccccc1NC(=O)CCC(=O)OCC(=O)c1ccc(C)c([N+](=O)[O-])c1,cell number change,,14.7%
same,AC50,[1],"2.91 µM [rising, partial curve]"
CC12CCC(=O)N1C(C(=O)Nc1nnc(SCc3ccc(F)cc3)s1)CS2 (centres undefined),cell number change,,-2.48%
same,AC50,[1],"29.1 µM [falling, single point]"
O=C(CNC(=O)c1nc[nH]c1C(=O)N1CCNCC1)OCc1ccccc1,cell number change,,17%
same,AC50,[1],"29.1 µM [rising, single point]"
O=C(NCCc1ccccc1)c1ccc2c(c1)S(=O)(=O)c1cc(Cl)ccc1C2=O,cell number change,,-42%
same,AC50,[2],"0.92 µM [falling, full curve]"
same,AC50,[1],"1.46 µM [falling, partial curve]"
O=C(CSc1n[nH]c(=O)[nH]c1=O)NC1CC1,cell number change,,-46.4%
same,AC50,[2],"13 µM [falling, partial curve]"
same,AC50,[1],"0.13 µM [falling, partial curve, poor fit]"

# Part of the list above in a different format:
smiles | measurement | setting | value
CCOC(=O)C1CCN(S(=O)(=O)c2ccc(C(=O)OC)cc2)CC1 | cell number change |  | -31.3%
same | AC50 | [2] | 20.6 µM [falling, single point]
CN(C)S(=O)(=O)c1cccc(NC(=O)c2cccc(NS(=O)(=O)c3ccccc3)c2)c1 | AC50 | [2] | 11.6 µM [falling, partial curve, poor fit]
COCCOC(=O)N/C=C\c1nc2ccccc2c(=O)[nH]1 | cell number change |  | 28.9%
COn1c(SCc2ccc(Cl)cc2)nc2ccccc2c1=O | cell number change |  | 120%
COc1ccc(CN(Cc2cccn2C)S(=O)(=O)c2ccccc2)cc1 | AC50 | [1] | 6.51 µM [rising, single point]
Cc1ccc(C(=O)NCc2ccc3c(c2)OCO3)cc1N1CCCC1=O | AC50 | [1] | 0.00461 µM [rising, full curve, poor fit]
COc1cc2c(cc1NC(=O)C(C)Sc1nc3ccccc3n1C)oc1ccccc12 (centres undefined) | cell number change |  | 27.9%
COc1ccc(OC)c(N(CC(=O)NN=C2CCN(C)CC2)S(=O)(=O)c2ccccc2)c1 | cell number change |  | -47.4%
same | AC50 | [2] | 32.6 µM [falling, single point]
Cc1ccc(S(=O)(=O)N(C)c2ccccc2C(=O)Nc2c(F)cccc2F)cc1 | AC50 | [2] | 20.6 µM [falling, single point]
CC(=O)OC(C(=O)NCc1ccco1)c1cccnc1 (centres undefined) | cell number change |  | -75.1%
same | AC50 | [1] | 0.517 µM [falling, partial curve, poor fit]
CCCNC(=O)CCC(=O)Nc1ncc(-c2ccc(C)cc2)n1C | AC50 | [2] | 4.61 µM [rising, single point]
COc1ccc(S(=O)(=O)N2Cc3ccccc3CC2C(=O)N2CCOCC2)cc1OC (centres undefined) | cell number change |  | -4.52%
O=C(Nc1ccc2c(c1)OCO2)C(c1ccccc1)N1CCN(C(=O)c2ccco2)CC1 (centres undefined) | cell number change |  | 76.6%
COCCn1c(N)c(Sc2ccccc2)c(=O)[nH]c1=O | cell number change |  | 7.14%
CC12CCC(=O)N1C(C(=O)Nc1nnc(SCc3ccc(F)cc3)s1)CS2 (centres undefined) | AC50 | [1] | 29.1 µM [falling, single point]
